Source: PubChem BioAssay AID504467 (National Center for Advancing Translational Sciences (NCATS), 2011)
About 7,700 (2.3%) of roughly 330,000 compounds were called active. This list was built around the results that the source calls inconclusive (neither active nor inactive); the mix of calls is not that of the screen. The call rests on the fitted dose curve; in most records, active means well fitted inhibition curve with a large enough effect; inconclusive means small, poorly fitted or top-dose-only effect, or effect the other way; inactive means flat fitted curve, though single readings scatter. Potencies beside an inconclusive call are fits to weak or partial responses and may not hold up.

Experiment: qHTS screen for small molecules that inhibit ELG1-dependent DNA repair in human embryonic kidney (HEK293T) cells expressing luciferase-tagged ELG1; further: nearly all actives have a fitted effect of over 55% in size
Conditions: HEK293T ELG1-luciferase reporter, luminescence, 16 h, DNA damage induced by 5-fluorouridine; activity change, negative = inhibition: at 46.1 µM (top of the series)
Method in brief: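 Overnight (16 hr) co-exposure of 2,000 cells/well to 5-fluorouridine and compound at 37 °C preceded detection. Luciferase was quantified via ONE-Glo luminescence; loss of signal denotes inhibition.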
On the % scale 0 is the no-effect control and ±100 the full control effect; potency means the concentration at half of the fitted maximal effect.

Structure (SMILES) | Potency | activity change, negative = inhibition
CC(C)c1ccccc1NC(=S)N1CCN(Cc2ccc3c(c2)OCO3)CC1 | inconclusive: 25.9 µM [inhibitor, single point] | –
COc1ccc(/C=N/NC(=O)c2nnn(-c3nonc3N)c2CN(C)C2CCCCC2)cc1 | inconclusive: 29.1 µM [activator, single point] | –
Cc1c(NC(=O)C(c2ccccc2)c2ccccc2)cccc1C(=O)O | inconclusive: 18.3 µM [activator, partial curve] | –
O=C(c1ccncc1)N1CCc2ccccc2C1 | – | inactive: 22.5%
O=c1[nH]c2ccccc2c(O)c1-c1ccccc1[N+](=O)[O-] | – | inactive: 9%
COC(=O)C[C@H](NC(=O)Cn1cnc2c(SC)nc(N)nc21)C(=O)OC | – | inactive: 12.4%
O=C(CNC(=O)c1ccccc1Cl)OCC(=O)N1CCc2ccccc21 | inconclusive: 25.9 µM [activator, partial curve, poor fit] | –
CCOC(=O)C(Oc1ccc2c(-c3ccccc3)cc(=O)oc2c1)c1ccccc1 (stereo not given) | inconclusive: 20.6 µM [inhibitor, single point] | –
CC(C)CN(C(=O)Cn1nnc(-c2ccc(F)cc2)n1)C1CCS(=O)(=O)C1 (stereo not given) | – | inactive: 7.49%
CCCCCN(C(=O)CCC(=O)OC(C)C(=O)c1ccccc1)c1c(N)n(CCCC)c(=O)[nH]c1=O (stereo not given) | – | inactive: 4.55%
CCOC(=O)c1sc(=S)n(C)c1NC(=O)c1ccc(C(C)(C)C)cc1 | inconclusive: 18.3 µM [inhibitor, single point] | –
CCOc1ccc(C(=O)NC(C)CCc2ccccc2)cc1 (stereo not given) | inconclusive: 29.1 µM [activator, single point] | –
Cc1c(Cl)cccc1NC(=S)NCc1ccc(F)cc1 | – | inactive: -4.07%
O=[N+]([O-])c1ccc(N/N=C/c2ccccc2)c(F)c1 | inconclusive: 14.6 µM [activator, partial curve] | –
O=[N+]([O-])c1ccc(Sc2ccccc2Cl)nc1 | inconclusive: 23.1 µM [activator, single point] | –
O=c1cc(Cl)[nH]c(=O)n1CCNc1ncc(C(F)(F)F)cc1Cl | inconclusive: 16.4 µM [activator, partial curve] | –
CC(C)(C)NC(=O)c1cnn(-c2ccccc2)c1NC(=O)c1ccccc1 | inconclusive: 29.1 µM [inhibitor, single point] | –
O=C(COC(=O)c1ccc([N+](=O)[O-])s1)Nc1ccc(F)cc1 | inconclusive: 11.2 µM [activator, partial curve] | –
CCOc1ccc(NC(=O)CN(C)C(=O)COc2cccc3c2OC(C)(C)C3)cc1OCC | – | inactive: -5.97%
O=C1[C@@H](Oc2ccccc2)[C@@H](c2cccnc2)N1c1ccccc1 | inconclusive: 23.1 µM [inhibitor, partial curve] | –
CC(Oc1ccc(F)cc1)C(=O)Nc1cc(S(=O)(=O)N2CCCCC2)ccc1N1CCOCC1 (stereo not given) | inconclusive: 14.6 µM [inhibitor, partial curve, poor fit] | –
CSc1ccccc1OCc1cc(C(=O)N2CCSCC2)no1 | inconclusive: 4.11 µM [activator, partial curve] | –
CC1CCc2cc(F)ccc2N1C(=O)CCC(=O)O (stereo not given) | – | inactive: 18%
O=C(Nc1cccc2ncccc12)C(Cl)(Cl)Cl | inconclusive: 1.3 µM [inhibitor, single point] | –

Four compounds drawn at random from those above:
Structure (SMILES) | Potency | activity change, negative = inhibition
CCOC(=O)C(Oc1ccc2c(-c3ccccc3)cc(=O)oc2c1)c1ccccc1 (stereo not given) | inconclusive: 20.6 µM [inhibitor, single point] | –
Cc1c(Cl)cccc1NC(=S)NCc1ccc(F)cc1 | – | inactive: -4.07%
O=c1[nH]c2ccccc2c(O)c1-c1ccccc1[N+](=O)[O-] | – | inactive: 9%
O=C(CNC(=O)c1ccccc1Cl)OCC(=O)N1CCc2ccccc21 | inconclusive: 25.9 µM [activator, partial curve, poor fit] | –

Following part.

Structure (SMILES) | Potency | activity change, negative = inhibition
COc1ccccc1CNc1nc(S(=O)(=O)c2ccccc2)c(Cl)s1 | – | inactive: -13%
Nc1nc(SCc2c(Cl)cccc2Cl)n[nH]1 | inconclusive: 32.6 µM [activator, partial curve, poor fit] | –
CC1CCCN(C(=O)CN2C(=O)C(C)Oc3ccccc32)C1 (stereo not given) | – | inactive: 1.58%
CN(Cc1nc(-c2ccc(Cl)cc2)no1)C(=O)CCN1C(=O)[C@H]2CC=CC[C@H]2C1=O | inconclusive: 16.4 µM [inhibitor, single point] | –
CCOC(=O)C1C(=O)OC(C)(C)C1C(CC)C(=O)c1c(C)cc(C)cc1C (stereo not given) | inconclusive: 16.4 µM [inhibitor, single point] | –
CC(NS(=O)(=O)c1ccc(Cl)cc1)C(=O)N1CCOCC1 (stereo not given) | – | inactive: 9.11%
CC(=O)N1CCc2cc(S(=O)(=O)NC3CCCc4ccccc43)ccc21 (stereo not given) | inconclusive: 6.51 µM [inhibitor, partial curve] | –
CC(C)(C)NC(=O)CSc1ncnc2c1cnn2-c1ccccc1 | inconclusive: 18.3 µM [activator, single point] | –
O=C(CCc1c[nH]c2ccccc12)N1CCCC1 | inconclusive: 23.1 µM [activator, partial curve, poor fit] | –
CCCn1c(=O)n(C)c(=O)c2c(SCC(=O)NCC(c3ccccc3)N(C)C)nc(CC(C)C)nc21 (stereo not given) | – | inactive: 0%
O=C(CCS(=O)(=O)c1cc(Br)cc2c1N(C(=O)C1CC1)CC2)NCc1ccco1 | inconclusive: 2.91 µM [activator, partial curve, poor fit] | –
CC(C)(C)OC(=O)N1CCC(CC2CC(c3ccccc3)=NO2)(C(=O)NCc2ccccc2)CC1 (stereo not given) | inconclusive: 12.6 µM [inhibitor, single point] | –
Cc1cc(C)cc(OCC(=O)Nc2ccc(N3CCOCC3)cc2N2CCOCC2)c1 | active: 16.4 µM | –
Nc1c(S(=O)(=O)c2cccs2)c2nc3ccccc3nc2n1Cc1ccc2c(c1)OCO2 | inconclusive: 29.1 µM [inhibitor, partial curve, poor fit] | –
O=C(O)c1ccc2c(c1)N(Cc1ccccc1)C(=O)c1ccccc1S2=O (stereo not given) | – | inactive: 10.1%
CCOc1nc(Nc2ccc(OC)c(Cl)c2)nc(N2CCN(c3ccc(OC)cc3)CC2)n1 | active: 18.4 µM | –
CCCCN(C(=O)CN1CC(C)OC(C)C1)c1c(N)n(CC(C)C)c(=O)[nH]c1=O (stereo not given) | inconclusive: 6.51 µM [activator, partial curve, poor fit] | –
COC(=O)c1ccc(COC(=O)c2ccccc2OC)cc1 | inconclusive: 16.4 µM [activator, partial curve] | –
COc1ccc(-n2ccnc2SCC(=O)NCc2ccco2)c(OC)c1 | – | inactive: -13.1%
CNc1ccccc1C(=O)OC | inconclusive: 0.092 µM [inhibitor, partial curve, poor fit] | –
CC(C)=CCC/C(C)=C/CNC(=O)CC1C[C@H](C(=O)N2CCOCC2)[C@@]2(C)c3[nH]c4ccccc4c3CCN2C1=O (stereo not given in full) | inconclusive: 29.1 µM [inhibitor, partial curve, poor fit] | –
OCCNCCNCc1ccc(-c2ccccc2)cc1 | inconclusive: 6.51 µM [activator, partial curve, poor fit] | –
COc1cccc(N(C(=O)CNC(=O)c2ccco2)C(C(=O)NC2CCCC2)c2ccco2)c1 (stereo not given) | inconclusive: 32.6 µM [activator, partial curve, poor fit] | –
Cc1ccnc(SCC(=O)c2ccc([N+](=O)[O-])cc2)n1 | inconclusive: 20.6 µM [activator, partial curve, poor fit] | –

Structure (SMILES) | Potency | activity change, negative = inhibition
Cc1ccc(S(=O)(=O)CCC(=O)OCC(=O)Nc2cc(S(=O)(=O)N3CCOCC3)ccc2C)cc1 | – | inactive: -3.5%
C/C(=N\OCC(=O)N/N=C/c1ccc(C)cc1O)c1cccs1 | – | inactive: -17.4%
CC1CCCCC1NC(=O)c1cncc(Br)c1 (stereo not given) | inconclusive: 18.4 µM [inhibitor, single point] | –
O=C(CSc1nccn1Cc1ccccc1)NCc1ccccc1 | inconclusive: 29.1 µM [activator, partial curve, poor fit] | –
CCOc1ccccc1NC(=O)C1CCN(S(C)(=O)=O)CC1 | – | inactive: 7.72%
CC(=O)c1ccc(NS(=O)(=O)c2ccccc2)cc1 | inconclusive: 29.1 µM [activator, single point] | –
O=C1Cc2ccccc2C(c2ccc(Br)cc2)N1 (stereo not given) | inconclusive: 10.3 µM [inhibitor, partial curve, poor fit] | –
Cc1cccc(-n2ncc3c2CCCC3NC(=O)CCN2CCCO2)c1C (stereo not given) | inconclusive: 29.1 µM [inhibitor, single point] | –
O=c1c2oc3ccccc3c2ncn1Cc1cccc(Cl)c1 | inconclusive: 20.6 µM [activator, single point] | –
S=c1[nH]nc(-c2ccc3ccccc3n2)n1-c1ccc2ncccc2c1 | – | inactive: 16.3%
C/C(=N\NC(=O)c1c[nH]c2ccccc12)c1ccc(C)s1 | inconclusive: 10.3 µM [activator, partial curve] | –
CN(C)S(=O)(=O)c1ccc(N2CCCC2)c(C(=O)NNC(=O)COc2ccccc2F)c1 | – | inactive: 13.6%
COc1cc(CC(=O)NC2CCCc3ccccc32)cc(OC)c1OC (stereo not given) | – | inactive: -7.06%
CN1CCN(c2ccc(CNC(=O)c3ccc4c(c3)OCCO4)cc2)CC1 | inconclusive: 25.9 µM [activator, single point] | –
CCc1ccc(OC(=O)/C=C/c2ccco2)cc1 | inconclusive: 23.1 µM [activator, single point] | –
S=C(Nc1cccc(Cl)c1Cl)NC1CCN(Cc2ccccc2)CC1 | – | inactive: -9.97%
Cc1ccc(-c2nc3ncccn3c2Nc2ccc3c(c2)OCO3)o1 | – | inactive: -1.75%
CN(C)c1c([N+](=O)[O-])cc2[nH]c(=O)[nH]c2c1[N+](=O)[O-] | inconclusive: 9.2 µM [activator, partial curve] | –
O=C(COC(=O)[C@@H]1CCCN1C(=O)c1cccs1)Nc1cccc(Cl)c1 | – | inactive: 0%
CCn1c(-c2ccoc2C)n[nH]c1=S | inconclusive: 0.731 µM [activator, single point] | –
O=C(OCn1ncc(Cl)c(Cl)c1=O)c1cccc(C(F)(F)F)c1 | inconclusive: 29.1 µM [inhibitor, single point] | –
CN(CC(=O)Nc1ccccc1Cl)C(=O)c1ccc(COc2ccccc2)cc1 | – | inactive: 1.41%
